Patent US9771340B2, “2-aminothiazole derivatives and methods of preparing and using the same” (Huazhong University of Science & Technology, priority 2011, dated 2017)
Some entries share one result that the patent states for a list of compounds. For at least one compound, name, drawing or mass did not settle the structure.

Protein sequences, listed by entry. Tags and fused reporters are not part of them.
UniProt P09874, whole entry: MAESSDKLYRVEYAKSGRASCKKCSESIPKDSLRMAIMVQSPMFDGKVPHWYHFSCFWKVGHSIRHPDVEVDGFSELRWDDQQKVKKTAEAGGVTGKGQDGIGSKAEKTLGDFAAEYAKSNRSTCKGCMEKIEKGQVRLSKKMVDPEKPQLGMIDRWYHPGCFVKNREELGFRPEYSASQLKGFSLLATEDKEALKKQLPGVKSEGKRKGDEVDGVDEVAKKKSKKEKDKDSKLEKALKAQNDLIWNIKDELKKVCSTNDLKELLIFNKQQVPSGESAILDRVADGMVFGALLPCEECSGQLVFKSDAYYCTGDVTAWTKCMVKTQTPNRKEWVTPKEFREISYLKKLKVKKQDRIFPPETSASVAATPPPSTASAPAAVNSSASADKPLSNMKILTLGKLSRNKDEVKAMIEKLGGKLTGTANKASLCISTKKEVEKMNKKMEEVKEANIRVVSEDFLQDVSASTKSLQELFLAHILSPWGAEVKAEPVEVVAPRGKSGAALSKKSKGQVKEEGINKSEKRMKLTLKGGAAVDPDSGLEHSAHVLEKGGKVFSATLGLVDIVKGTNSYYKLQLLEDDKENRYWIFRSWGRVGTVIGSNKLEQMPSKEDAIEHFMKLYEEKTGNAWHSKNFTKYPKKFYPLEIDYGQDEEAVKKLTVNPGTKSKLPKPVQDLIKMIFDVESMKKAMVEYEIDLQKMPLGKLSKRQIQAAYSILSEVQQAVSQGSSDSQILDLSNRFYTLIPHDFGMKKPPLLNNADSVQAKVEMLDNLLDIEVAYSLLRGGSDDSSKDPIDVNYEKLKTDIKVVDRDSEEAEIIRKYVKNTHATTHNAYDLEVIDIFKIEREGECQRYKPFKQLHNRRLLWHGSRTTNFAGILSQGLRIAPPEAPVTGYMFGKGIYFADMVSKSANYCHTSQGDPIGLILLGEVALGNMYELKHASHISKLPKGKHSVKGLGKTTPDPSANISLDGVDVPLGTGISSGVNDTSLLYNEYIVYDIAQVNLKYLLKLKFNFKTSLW

Target: T1, PARP-1 (Homo sapiens, UniProt P09874)
T1 construct: purchased R&D 4677-096-K
Assay: PARP-1 inhibition, universal chromogenic method kit
Type: biochemical
Conditions: concentration 1 M (so in the source); FIG. 2

**Q.** How did the “inhibition rate on the PARP-1” value turn out when `CCN(CCC(=O)Nc1nc(-c2ccccc2)c(C)s1)Cc1ccccn1` [TJ-M201041, 3-(N,N-pyridylmethyl-ethylamine)-N-(4-phenyl-thiazole-5-methyl-2-yl)-propionamide] was run?
**A.** exceeding 50%
